Drawing on paper doi:10.1101/588574, this text covers binding for 18 molecules.

Protein sequences, listed by entry. Tags and fused reporters are not part of them.
UniProt Q9UQ84: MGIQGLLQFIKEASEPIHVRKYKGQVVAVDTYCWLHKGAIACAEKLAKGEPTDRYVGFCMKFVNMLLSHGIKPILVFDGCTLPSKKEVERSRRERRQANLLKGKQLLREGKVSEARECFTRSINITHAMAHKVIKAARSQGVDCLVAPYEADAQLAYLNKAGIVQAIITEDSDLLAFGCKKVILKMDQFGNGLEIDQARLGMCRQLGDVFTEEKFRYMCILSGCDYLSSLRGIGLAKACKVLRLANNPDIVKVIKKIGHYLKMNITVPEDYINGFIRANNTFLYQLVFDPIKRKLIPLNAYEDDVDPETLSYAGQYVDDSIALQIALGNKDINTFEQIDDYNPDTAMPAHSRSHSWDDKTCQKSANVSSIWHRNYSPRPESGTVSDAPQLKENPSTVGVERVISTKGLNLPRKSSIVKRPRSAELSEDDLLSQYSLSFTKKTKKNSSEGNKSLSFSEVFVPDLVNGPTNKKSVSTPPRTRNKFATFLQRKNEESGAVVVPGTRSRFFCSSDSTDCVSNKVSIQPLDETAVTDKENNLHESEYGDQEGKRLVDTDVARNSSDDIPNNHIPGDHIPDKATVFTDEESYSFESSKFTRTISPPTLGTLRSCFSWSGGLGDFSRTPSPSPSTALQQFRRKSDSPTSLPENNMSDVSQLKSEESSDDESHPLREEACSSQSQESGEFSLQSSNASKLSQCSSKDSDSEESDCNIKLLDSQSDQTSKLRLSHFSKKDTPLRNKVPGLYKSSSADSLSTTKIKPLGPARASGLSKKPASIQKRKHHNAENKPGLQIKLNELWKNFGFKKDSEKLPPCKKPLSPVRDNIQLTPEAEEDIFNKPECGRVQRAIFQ
UniProt P63104: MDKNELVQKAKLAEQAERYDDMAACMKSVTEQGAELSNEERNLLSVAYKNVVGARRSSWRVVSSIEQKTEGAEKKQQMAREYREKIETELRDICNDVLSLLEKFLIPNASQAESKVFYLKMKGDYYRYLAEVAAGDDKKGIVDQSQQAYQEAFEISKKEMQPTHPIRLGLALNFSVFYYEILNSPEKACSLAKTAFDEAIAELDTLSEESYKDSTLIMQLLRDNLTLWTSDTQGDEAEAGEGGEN
UniProt P46013: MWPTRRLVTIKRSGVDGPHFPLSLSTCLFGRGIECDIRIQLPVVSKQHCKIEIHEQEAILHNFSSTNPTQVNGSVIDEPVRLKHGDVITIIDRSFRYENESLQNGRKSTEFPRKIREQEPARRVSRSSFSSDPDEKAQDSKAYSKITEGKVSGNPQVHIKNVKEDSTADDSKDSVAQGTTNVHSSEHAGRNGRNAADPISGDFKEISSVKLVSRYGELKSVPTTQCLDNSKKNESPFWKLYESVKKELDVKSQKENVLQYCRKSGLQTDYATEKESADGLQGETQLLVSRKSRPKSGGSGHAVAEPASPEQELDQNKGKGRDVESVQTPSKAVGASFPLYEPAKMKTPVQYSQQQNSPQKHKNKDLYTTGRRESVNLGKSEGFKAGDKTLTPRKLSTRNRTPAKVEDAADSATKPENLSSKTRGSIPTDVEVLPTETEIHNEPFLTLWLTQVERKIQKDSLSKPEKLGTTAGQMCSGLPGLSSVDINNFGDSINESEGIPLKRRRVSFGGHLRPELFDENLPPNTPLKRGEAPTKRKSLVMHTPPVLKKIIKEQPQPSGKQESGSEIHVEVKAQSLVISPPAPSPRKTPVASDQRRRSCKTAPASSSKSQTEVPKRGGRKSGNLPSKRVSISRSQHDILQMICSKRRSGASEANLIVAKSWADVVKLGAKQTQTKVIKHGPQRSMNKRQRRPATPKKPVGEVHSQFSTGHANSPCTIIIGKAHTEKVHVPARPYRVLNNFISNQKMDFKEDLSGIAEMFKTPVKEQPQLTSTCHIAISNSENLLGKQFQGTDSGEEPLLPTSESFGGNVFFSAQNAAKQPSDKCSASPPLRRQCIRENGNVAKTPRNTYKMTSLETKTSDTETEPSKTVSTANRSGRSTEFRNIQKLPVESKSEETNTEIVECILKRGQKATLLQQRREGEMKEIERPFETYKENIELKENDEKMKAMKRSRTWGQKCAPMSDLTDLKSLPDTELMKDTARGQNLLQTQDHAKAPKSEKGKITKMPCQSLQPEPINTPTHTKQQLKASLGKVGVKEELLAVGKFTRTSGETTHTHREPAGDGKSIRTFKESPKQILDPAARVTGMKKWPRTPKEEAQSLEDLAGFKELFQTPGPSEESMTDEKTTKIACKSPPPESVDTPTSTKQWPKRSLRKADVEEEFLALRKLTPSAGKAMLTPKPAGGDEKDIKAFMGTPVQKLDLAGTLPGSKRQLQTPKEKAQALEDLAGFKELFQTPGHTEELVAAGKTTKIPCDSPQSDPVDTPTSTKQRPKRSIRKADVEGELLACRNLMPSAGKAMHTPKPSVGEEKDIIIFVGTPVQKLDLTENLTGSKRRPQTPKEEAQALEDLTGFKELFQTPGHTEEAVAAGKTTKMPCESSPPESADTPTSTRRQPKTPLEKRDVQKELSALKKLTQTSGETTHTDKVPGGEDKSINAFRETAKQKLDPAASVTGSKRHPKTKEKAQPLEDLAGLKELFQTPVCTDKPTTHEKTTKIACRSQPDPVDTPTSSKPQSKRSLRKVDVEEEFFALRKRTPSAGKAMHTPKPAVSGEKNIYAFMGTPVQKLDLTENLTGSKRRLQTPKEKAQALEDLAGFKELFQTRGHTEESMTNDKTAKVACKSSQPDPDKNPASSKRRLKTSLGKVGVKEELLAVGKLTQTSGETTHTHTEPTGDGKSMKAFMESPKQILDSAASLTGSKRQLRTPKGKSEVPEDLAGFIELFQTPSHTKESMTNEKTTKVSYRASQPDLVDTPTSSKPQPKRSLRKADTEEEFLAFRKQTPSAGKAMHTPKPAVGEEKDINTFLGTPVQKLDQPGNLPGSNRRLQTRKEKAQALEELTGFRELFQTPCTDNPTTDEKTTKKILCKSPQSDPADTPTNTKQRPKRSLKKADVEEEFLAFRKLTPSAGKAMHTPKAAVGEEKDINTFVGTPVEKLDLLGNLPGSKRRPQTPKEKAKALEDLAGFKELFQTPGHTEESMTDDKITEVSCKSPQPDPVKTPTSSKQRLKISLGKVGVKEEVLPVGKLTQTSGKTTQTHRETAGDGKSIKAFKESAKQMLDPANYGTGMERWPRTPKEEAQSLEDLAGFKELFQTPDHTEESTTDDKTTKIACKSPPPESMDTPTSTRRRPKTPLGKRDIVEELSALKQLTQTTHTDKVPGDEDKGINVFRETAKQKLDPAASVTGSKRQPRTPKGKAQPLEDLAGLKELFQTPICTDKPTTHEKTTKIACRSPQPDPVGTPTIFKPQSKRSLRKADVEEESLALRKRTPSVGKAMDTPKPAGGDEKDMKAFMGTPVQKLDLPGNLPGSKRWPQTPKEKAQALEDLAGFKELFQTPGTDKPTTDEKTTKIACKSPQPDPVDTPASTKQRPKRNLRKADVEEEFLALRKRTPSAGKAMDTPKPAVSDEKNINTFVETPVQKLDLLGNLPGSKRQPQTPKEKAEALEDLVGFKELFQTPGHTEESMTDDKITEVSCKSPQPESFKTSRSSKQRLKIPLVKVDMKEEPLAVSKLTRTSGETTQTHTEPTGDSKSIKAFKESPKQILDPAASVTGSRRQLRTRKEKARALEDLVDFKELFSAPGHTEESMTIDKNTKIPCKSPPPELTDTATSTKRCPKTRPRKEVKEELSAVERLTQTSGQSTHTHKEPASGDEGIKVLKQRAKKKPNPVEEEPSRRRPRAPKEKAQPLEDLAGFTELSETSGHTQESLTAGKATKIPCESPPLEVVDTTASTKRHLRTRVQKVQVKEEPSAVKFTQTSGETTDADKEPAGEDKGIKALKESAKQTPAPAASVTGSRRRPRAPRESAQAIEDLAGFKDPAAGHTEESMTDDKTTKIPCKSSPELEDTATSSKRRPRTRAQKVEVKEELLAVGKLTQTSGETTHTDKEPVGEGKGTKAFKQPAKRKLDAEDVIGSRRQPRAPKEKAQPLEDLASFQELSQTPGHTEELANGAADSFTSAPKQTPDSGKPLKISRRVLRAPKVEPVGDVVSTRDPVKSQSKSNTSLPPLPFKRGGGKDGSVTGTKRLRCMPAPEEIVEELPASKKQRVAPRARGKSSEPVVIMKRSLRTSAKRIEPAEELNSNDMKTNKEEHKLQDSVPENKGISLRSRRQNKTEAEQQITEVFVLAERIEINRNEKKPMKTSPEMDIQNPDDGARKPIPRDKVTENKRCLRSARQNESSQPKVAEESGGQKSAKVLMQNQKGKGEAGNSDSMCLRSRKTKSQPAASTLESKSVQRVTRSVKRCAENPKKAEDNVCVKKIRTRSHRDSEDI
UniProt Q5T3I0: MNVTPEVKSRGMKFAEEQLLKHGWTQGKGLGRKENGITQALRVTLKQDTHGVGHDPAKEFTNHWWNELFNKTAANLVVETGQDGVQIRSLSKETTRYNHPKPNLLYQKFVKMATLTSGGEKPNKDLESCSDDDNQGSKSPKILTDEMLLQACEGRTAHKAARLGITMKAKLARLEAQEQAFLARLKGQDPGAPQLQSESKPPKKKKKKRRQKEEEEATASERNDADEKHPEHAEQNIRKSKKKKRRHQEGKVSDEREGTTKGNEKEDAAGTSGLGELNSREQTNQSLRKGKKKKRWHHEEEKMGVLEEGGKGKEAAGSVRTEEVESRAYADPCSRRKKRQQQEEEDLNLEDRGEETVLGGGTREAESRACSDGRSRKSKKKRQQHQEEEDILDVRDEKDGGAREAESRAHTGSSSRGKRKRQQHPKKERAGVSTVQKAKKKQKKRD
UniProt Q5SSJ5: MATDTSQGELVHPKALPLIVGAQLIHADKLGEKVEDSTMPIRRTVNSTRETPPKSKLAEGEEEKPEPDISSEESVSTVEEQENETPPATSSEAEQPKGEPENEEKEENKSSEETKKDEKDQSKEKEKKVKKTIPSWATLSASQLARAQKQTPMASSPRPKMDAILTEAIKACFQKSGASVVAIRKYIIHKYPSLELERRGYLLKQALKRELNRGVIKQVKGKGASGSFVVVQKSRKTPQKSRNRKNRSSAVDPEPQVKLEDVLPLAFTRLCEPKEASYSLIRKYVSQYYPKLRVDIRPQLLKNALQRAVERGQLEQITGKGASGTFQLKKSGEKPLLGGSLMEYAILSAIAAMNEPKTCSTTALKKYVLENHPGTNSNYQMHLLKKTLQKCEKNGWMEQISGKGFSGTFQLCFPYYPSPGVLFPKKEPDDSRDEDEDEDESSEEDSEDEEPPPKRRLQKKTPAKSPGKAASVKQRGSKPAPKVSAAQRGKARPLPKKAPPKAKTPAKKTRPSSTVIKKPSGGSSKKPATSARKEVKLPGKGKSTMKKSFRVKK
UniProt Q9UNE7: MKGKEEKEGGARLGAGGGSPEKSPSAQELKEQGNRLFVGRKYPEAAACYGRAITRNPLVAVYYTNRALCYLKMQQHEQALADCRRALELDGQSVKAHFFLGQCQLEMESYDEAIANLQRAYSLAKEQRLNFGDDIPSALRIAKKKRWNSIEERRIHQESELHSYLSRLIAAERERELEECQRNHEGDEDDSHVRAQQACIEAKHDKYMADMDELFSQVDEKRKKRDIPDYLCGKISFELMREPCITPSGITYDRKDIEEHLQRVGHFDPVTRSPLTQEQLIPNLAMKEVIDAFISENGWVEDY
UniProt P62258: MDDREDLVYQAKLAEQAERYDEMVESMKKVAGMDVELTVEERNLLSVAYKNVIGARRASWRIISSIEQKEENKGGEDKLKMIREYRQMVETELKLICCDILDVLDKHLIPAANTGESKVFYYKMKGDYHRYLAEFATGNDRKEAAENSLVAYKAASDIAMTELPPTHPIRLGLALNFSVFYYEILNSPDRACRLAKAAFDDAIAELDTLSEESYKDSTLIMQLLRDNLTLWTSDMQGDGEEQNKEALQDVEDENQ
UniProt O60506: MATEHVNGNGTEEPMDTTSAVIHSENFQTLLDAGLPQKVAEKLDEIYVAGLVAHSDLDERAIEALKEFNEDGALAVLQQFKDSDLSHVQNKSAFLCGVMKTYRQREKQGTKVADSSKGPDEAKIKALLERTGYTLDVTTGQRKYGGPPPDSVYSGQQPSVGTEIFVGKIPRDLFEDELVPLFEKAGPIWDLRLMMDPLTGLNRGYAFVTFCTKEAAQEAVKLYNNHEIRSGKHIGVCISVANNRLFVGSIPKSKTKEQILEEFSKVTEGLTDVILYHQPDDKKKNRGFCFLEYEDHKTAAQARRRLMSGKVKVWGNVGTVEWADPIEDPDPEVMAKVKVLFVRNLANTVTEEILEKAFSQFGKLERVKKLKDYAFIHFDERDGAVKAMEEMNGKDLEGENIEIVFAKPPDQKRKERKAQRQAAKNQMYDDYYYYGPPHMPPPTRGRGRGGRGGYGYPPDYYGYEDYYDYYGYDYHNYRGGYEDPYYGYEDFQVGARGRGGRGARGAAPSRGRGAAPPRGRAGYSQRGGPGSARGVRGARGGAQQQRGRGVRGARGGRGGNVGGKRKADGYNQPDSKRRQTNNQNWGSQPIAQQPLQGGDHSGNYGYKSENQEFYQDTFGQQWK

Results are given in words; binding and its absence hold for the method and conditions named. In cells and extracts the contact can be indirect. These calls come from enrichment with a bait or labelling near it, and not all partners need be listed.

This assay addresses EXO1-2x-Strep (human) (UniProt Q9UQ84). In words: affinity purification with mass spectrometry.

With 14-3-3ζ (from UniProt P63104 1-245), the binding result is listed as “binds”.

As to “cell proliferation-associated antigen (KI67) (from UniProt P46013 1-3256)”, the binding entry was “binds”. In the case of 14-3-3β (from UniProt P31946 1-246), the binding result is listed as “binds”. Regarding GPTC4 (from UniProt Q5T3I0 1-446), the binding entry is “binds”. Then STAU1 (from UniProt O95793 1-577), with “binds”; and hnRNP-G (from UniProt P38159 1-391), with “binds”; and HP1B3 (from UniProt Q5SSJ5 1-553), with “binds”.

On to “CHIP/STUB1 (from UniProt Q9UNE7 1-303) (enzyme)”, for which the binding result is recorded as “binds”. Then “RRP5/PDCD11 (from UniProt Q14690 1-1871)”, with “binds”; and 14-3-3ε (from UniProt P62258 1-255), with “binds”. Then hnRNP-Q (from UniProt O60506 1-623), with “binds”.

B1: RRP1B (protein, UniProt Q14684 1-758)
chain: MAPAMQPAEIQFAQRLASSEKGIRDRAVKKLRQYISVKTQRETGGFSQEELLKIWKGLFYCMWVQDEPLLQEELANTIAQLVHAVNNSAAQHLFIQTFWQTMNREWKGIDRLRLDKYYMLIRLVLRQSFEVLKRNGWEESRIKVFLDVLMKEVLCPESQSPNGVRFHFIDIYLDELSKVGGKELLADQNLKFIDPFCKIAAKTKDHTLVQTIARGVFEAIVDQSPFVPEETMEEQKTKVGDGDLSAEEIPENEVSLRRAVSKKKTALGKNHSRKDGLSDERGRDDCGTFEDTGPLLQFDYKAVADRLLEMTSRKNTPHFNRKRLSKLIKKFQDLSEGSSISQLSFAEDISADEDDQILSQGKHKKKGNKLLEKTNLEKEKGSRVFCVEEEDSESSLQKRRRKKKKKHHLQPENPGPGGAAPSLEQNRGREPEASGLKALKARVAEPGAEATSSTGEESGSEHPPAVPMHNKRKRPRKKSPRAHREMLESAVLPPEDMSQSGPSGSHPQGPRGSPTGGAQLLKRKRKLGVVPVNGSGLSTPAWPPLQQEGPPTGPAEGANSHTTLPQRRRLQKKKAGPGSLELCGLPSQKTASLKKRKKMRVMSNLVEHNGVLESEAGQPQALGSSGTCSSLKKQKLRAESDFVKFDTPFLPKPLFFRRAKSSTATHPPGPAVQLNKTPSSSKKVTFGLNRNMTAEFKKTDKSILVSPTGPSRVAFDPEQKPLHGVLKTPTSSPASSPLVAKKPLTTTPRRRPRAMDFF
B1: the binding entry is recorded as “binds”.

B2: GNL3 (protein, UniProt Q9BVP2 1-549)
chain: MKRPKLKKASKRMTCHKRYKIQKKVREHHRKLRKEAKKRGHKKPRKDPGVPNSAPFKEALLREAELRKQRLEELKQQQKLDRQKELEKKRKLETNPDIKPSNVEPMEKEFGLCKTENKAKSGKQNSKKLYCQELKKVIEASDVVLEVLDARDPLGCRCPQVEEAIVQSGQKKLVLILNKSDLVPKENLESWLNYLKKELPTVVFRASTKPKDKGKITKRVKAKKNAAPFRSEVCFGKEGLWKLLGGFQETCSKAIRVGVIGFPNVGKSSIINSLKQEQMCNVGVSMGLTRSMQVVPLDKQITIIDSPSFIVSPLNSSSALALRSPASIEVVKPMEAASAILSQADARQVVLKYTVPGYRNSLEFFTVLAQRRGMHQKGGIPNVEGAAKLLWSEWTGASLAYYCHPPTSWTPPPYFNESIVVDMKSGFNLEELEKNNAQSIRAIKGPHLANSILFQSSGLTNGIIEEKDIHEELPKRKERKQEEREDDKDSDQETVDEEVDENSSGMFAAEETGEALSEETTAGEQSTRSFILDKIIEEDDAYDFSTDYV
With B2, the binding entry was “binds”.

B3: SFRS7 (protein, UniProt Q16629 1-238)
chain: MSRYGRYGGETKVYVGNLGTGAGKGELERAFSYYGPLRTVWIARNPPGFAFVEFEDPRDAEDAVRGLDGKVICGSRVRVELSTGMPRRSRFDRPPARRPFDPNDRCYECGEKGHYAYDCHRYSRRRRSRSRSRSHSRSRGRRYSRSRSRSRGRRSRSASPRRSRSISLRRSRSASLRRSRSGSIKGSRYFQSPSRSRSRSRSISRPRSSRSKSRSPSPKRSRSPSGSPRRSASPERMD
For B3, the binding result is given as “binds”.

B4: ZNF655 (protein, UniProt Q8N720 1-491)
chain: MEEIPAQEAAGSPRVQFQSLETQSECLSPEPQFVQDTDMEQGLTGDGETREENKLLIPKQKISEEVHSYKVRVGRLKHDITQVPETREVYKSEDRLERLQEILRKFLYLEREFRQITISKETFTSEKNNECHEPEKSFSLDSTIDADQRVLRIQNTDDNDKYDMSFNQNSASGKHEHLNLTEDFQSSECKESLMDLSHLNKWESIPNTEKSYKCDVCGKIFHQSSALTRHQRIHTREKPYKCKECEKSFSQSSSLSRHKRIHTREKPYKCEASDKSCEASDKSCSPSSGIIQHKKIHTRAKSYKCSSCERVFSRSVHLTQHQKIHKEMPCKCTVCGSDFCHTSYLLEHQRVHHEEKAYEYDEYGLAYIKQQGIHFREKPYTCSECGKDFRLNSHLIQHQRIHTGEKAHECNECGKAFSQTSCLIQHHKMHRKEKSYECNEYEGSFSHSSDLILQQEVLTRQKAFDCDVWEKNSSQRAHLVQHQSIHTKENS
As for B4, the binding result is “binds”.

B5: SFRS5 (protein, UniProt Q13243 1-272)
chain: MSGCRVFIGRLNPAAREKDVERFFKGYGRIRDIDLKRGFGFVEFEDPRDADDAVYELDGKELCSERVTIEHARARSRGGRGRGRYSDRFSSRRPRNDRRNAPPVRTENRLIVENLSSRVSWQDLKDFMRQAGEVTFADAHRPKLNEGVVEFASYGDLKNAIEKLSGKEINGRKIKLIEGSKRHSRSRSRSRSRTRSSSRSRSRSRSRSRKSYSRSRSRSRSRSRSKSRSVSRSPVPEKSQKRGSSSRSKSPASVDRQRSRSRSRSRSVDSGN
Consider B5, for which the binding entry is reported as “binds”.

B6: PHD-finger protein 6 (protein, UniProt Q8IWS0 1-365)
chain: MSSSVEQKKGPTRQRKCGFCKSNRDKECGQLLISENQKVAAHHKCMLFSSALVSSHSDNESLGGFSIEDVQKEIKRGTKLMCSLCHCPGATIGCDVKTCHRTYHYHCALHDKAQIREKPSQGIYMVYCRKHKKTAHNSEADLEESFNEHELEPSSPKSKKKSRKGRPRKTNFKGLSEDTRSTSSHGTDEMESSSYRDRSPHRSSPSDTRPKCGFCHVGEEENEARGKLHIFNAKKAAAHYKCMLFSSGTVQLTTTSRAEFGDFDIKTVLQEIKRGKRMKCTLCSQPGATIGCEIKACVKTYHYHCGVQDKAKYIENMSRGIYKLYCKNHSGNDERDEEDEERESKSRGKVEIDQQQLTQQQLNGN
Regarding B6, the binding entry was “binds”.

B7: hnRNP-R (protein, UniProt O43390 1-633)
chain: MANQVNGNAVQLKEEEEPMDTSSVTHTEHYKTLIEAGLPQKVAERLDEIFQTGLVAYVDLDERAIDALREFNEEGALSVLQQFKESDLSHVQNKSAFLCGVMKTYRQREKQGSKVQESTKGPDEAKIKALLERTGYTLDVTTGQRKYGGPPPDSVYSGVQPGIGTEVFVGKIPRDLYEDELVPLFEKAGPIWDLRLMMDPLSGQNRGYAFITFCGKEAAQEAVKLCDSYEIRPGKHLGVCISVANNRLFVGSIPKNKTKENILEEFSKVTEGLVDVILYHQPDDKKKNRGFCFLEYEDHKSAAQARRRLMSGKVKVWGNVVTVEWADPVEEPDPEVMAKVKVLFVRNLATTVTEEILEKSFSEFGKLERVKKLKDYAFVHFEDRGAAVKAMDEMNGKEIEGEEIEIVLAKPPDKKRKERQAARQASRSTAYEDYYYHPPPRMPPPIRGRGRGGGRGGYGYPPDYYGYEDYYDDYYGYDYHDYRGGYEDPYYGYDDGYAVRGRGGGRGGRGAPPPPRGRGAPPPRGRAGYSQRGAPLGPPRGSRGGRGGPAQQQRGRGSRGSRGNRGGNVGGKRKADGYNQPDSKRRQTNNQQNWGSQPIAQQPLQQGGDYSGNYGYNNDNQEFYQDTYGQQWK
For B7, the binding result was “binds”.
